The test system of this experiment is CD2F1 mice, L1210 leukemia ip, survival T/C. In words: NCI In Vivo Anticancer Drug Screen. Data for tumor model L1210 Leukemia (intraperitoneal) in CD2F1 (CDF1) mice. The note with it: T/C endpoint: mean survival time, higher T/C = longer survival. Put shortly: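 Vehicle-treated tumor-bearing mice served as controls (C) for compound-treated mice (T). Reported figure is T divided by C.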

[1] abbreviates: dose: 64.0 mg/kg/injection, schedule: Q01DX009 (ip), vehicle: saline.

Structures are written as SMILES. The list is a part of this screen's results and no random one: its compounds were picked by chemical class. Other doses and runs of a compound may be missing. T/C is the treated group as % of the vehicle group. Some entries give survivors of the animals treated and no T/C: the source files T/C as zero there, which appears to mark a toxic dose or a test without result, not a measured value. Some doses without a T/C left all or most animals alive at the check, yet need not have been tolerated: survival well below the control is almost never listed, so the zero probably covers shortened survival too. Counts of survivors are from the toxicity check (mostly the fifth day) where no day follows; animals may have died later. Schedule codes are those of the source, taken here to give the interval after Q, in days (D) or hours (H), and the number of doses after X. Some complexes appear as separate parts, the way the source draws them; their charges need not add up. For survival time, this PubChem deposit counts one and a half times the control or more as active, and values a quarter to a half above the control carry no call in these data; other NCI protocols may use other cut-offs. Some doses were run more than once; their values stand side by side, smallest first. Some entries show no survivor count and are marked so; the dose need not have been tolerated. Some T/C values are followed by the survivors on the day toxicity was checked, most often the fifth; without a count or a note in brackets, all were alive then.

With `CN(N=O)C(=N)N[N+](=O)[O-]`, the T/C is 112 and 122 % of control (dose: 8.0 mg/kg/injection, schedule: Q01DX009 (ip), vehicle: saline); 127 % of control (dose: 10.0 mg/kg/injection, schedule: Q01DX007 (ip), vehicle: saline); 112 % of control (dose: 10.0 mg/kg/injection, schedule: Q01DX009 (ip), vehicle: saline); 122 % of control (dose: 10.0 mg/kg/injection, schedule: Q03DX003 (ip), vehicle: saline); 118 % of control (dose: 10.0 mg/kg/injection, schedule: Q04DX003 (ip), vehicle: saline); 123 and 147 % of control (dose: 16.0 mg/kg/injection, schedule: Q01DX009 (ip), vehicle: saline). Further, the T/C was 125 % of control (dose: 20.0 mg/kg/injection, schedule: Q01DX007 (ip), vehicle: saline); 131 % of control (dose: 20.0 mg/kg/injection, schedule: Q01DX009 (ip), vehicle: saline); 121 % of control (dose: 20.0 mg/kg/injection, schedule: Q03DX003 (ip), vehicle: saline); 120 % of control (dose: 20.0 mg/kg/injection, schedule: Q04DX003 (ip), vehicle: saline); 125 and 134 % of control (dose: 32.0 mg/kg/injection, schedule: Q01DX009 (ip), vehicle: saline); 90 % of control (dose: 40.0 mg/kg/injection, schedule: Q01DX009 (ip), vehicle: saline). The T/C reads like this: (dose: 40.0 mg/kg/injection, schedule: Q03DX003 (ip), vehicle: saline) 107 % of control; (dose: 40.0 mg/kg/injection, schedule: Q04DX003 (ip), vehicle: saline) 134 % of control; under setting [1], 114 % of control [5 of 6 alive]. Moreover, the survivor count by setting is: (dose: 40.0 mg/kg/injection, schedule: Q01DX007 (ip), vehicle: saline) 6 of 6; under setting [1], 6 of 6.

As to `CCCCC(CCCC)NCC(C)O.O=[N+]([O-])c1cc([N+](=O)[O-])c(O)c([N+](=O)[O-])c1`, the T/C runs as follows: (dose: 75.0 mg/kg/injection, schedule: Q01DX001 (ip), vehicle: other) 102 % of control [survivor count not shown]; (dose: 150.0 mg/kg/injection, schedule: Q01DX001 (ip), vehicle: other) 97 % of control [survivor count not shown].

With `CCCNC(=O)c1ccc(N(CCCl)CCCl)cc1`, the T/C reads like this: (dose: 3.12 mg/kg/injection, schedule: Q01DX009 (ip), vehicle: Klucel (hydroxypropylcellulose) (HPC)) 97 % of control; (dose: 6.25 mg/kg/injection, schedule: Q01DX009 (ip), vehicle: Klucel (hydroxypropylcellulose) (HPC)) 105 % of control; (dose: 12.5 mg/kg/injection, schedule: Q01DX009 (ip), vehicle: Klucel (hydroxypropylcellulose) (HPC)) 103 % of control; (dose: 25.0 mg/kg/injection, schedule: Q01DX009 (ip), vehicle: Klucel (hydroxypropylcellulose) (HPC)) 107 % of control; (dose: 50.0 mg/kg/injection, schedule: Q01DX009 (ip), vehicle: Klucel (hydroxypropylcellulose) (HPC)) 102 % of control; (dose: 100.0 mg/kg/injection, schedule: Q01DX009 (ip), vehicle: Klucel (hydroxypropylcellulose) (HPC)) 101 % of control. Where the note is “dose: 200.0 mg/kg/injection, schedule: Q01DX009 (ip), vehicle: Klucel (hydroxypropylcellulose) (HPC)”, the T/C was 102 % of control [4 of 6 alive].

Consider `O=c1[nH]cc(Nc2c([N+](=O)[O-])cc([N+](=O)[O-])cc2[N+](=O)[O-])c(=O)[nH]1`, for which the T/C (dose: 6.25 mg/kg/injection, schedule: Q01DX009 (ip), vehicle: saline with Tween-80) is 107 % of control; the T/C (dose: 6.25 mg/kg/injection, schedule: Q04DX003 (ip), vehicle: saline with Tween-80) was 100 % of control; the T/C (dose: 12.5 mg/kg/injection, schedule: Q01DX009 (ip), vehicle: saline with Tween-80) was 93 % of control; the T/C (dose: 12.5 mg/kg/injection, schedule: Q04DX003 (ip), vehicle: saline with Tween-80) is 96 % of control; the T/C (dose: 25.0 mg/kg/injection, schedule: Q01DX009 (ip), vehicle: saline with Tween-80) was 95 % of control; the T/C (dose: 25.0 mg/kg/injection, schedule: Q04DX003 (ip), vehicle: saline with Tween-80) is 100 % of control. For the same molecule, the survivor count is recorded as 0 of 6 (dose: 100.0 mg/kg/injection, schedule: Q04DX003 (ip), vehicle: saline with Tween-80); 0 of 6 (dose: 200.0 mg/kg/injection, schedule: Q04DX003 (ip), vehicle: saline with Tween-80); 0 of 6 (dose: 400.0 mg/kg/injection, schedule: Q04DX003 (ip), vehicle: saline with Tween-80).

Regarding `[C-]#N.[C-]#N.[C-]#N.[C-]#N.[C-]#N.[C-]#N.[Co].c1ccc([I+]c2ccccc2)cc1`, the survivor count by setting is: (dose: 100.0 mg/kg/injection, schedule: Q01DX001 (ip), vehicle: saline) 1 of 6; (dose: 200.0 mg/kg/injection, schedule: Q01DX001 (ip), vehicle: saline) 0 of 6; (dose: 400.0 mg/kg/injection, schedule: Q01DX001 (ip), vehicle: saline) 0 of 6.

As for `O=C(Cl)Oc1ccccc1`, the T/C by setting is: (dose: 75.0 mg/kg/injection, schedule: Q01DX001 (ip), vehicle: saline) 95 % of control; (dose: 150.0 mg/kg/injection, schedule: Q01DX001 (ip), vehicle: saline) 106 % of control; (dose: 300.0 mg/kg/injection, schedule: Q01DX001 (ip), vehicle: saline) 101 % of control.

Take `O=C(CCC(=O)OCCNc1ccc([N+](=O)[O-])cc1[N+](=O)[O-])OCCNc1ccc([N+](=O)[O-])cc1[N+](=O)[O-]`: the T/C was 102 % of control (dose: 100.0 mg/kg/injection, schedule: Q04DX002 (ip), vehicle: saline with Tween-80); 91 % of control (dose: 200.0 mg/kg/injection, schedule: Q04DX002 (ip), vehicle: saline with Tween-80); 95 % of control (dose: 400.0 mg/kg/injection, schedule: Q04DX002 (ip), vehicle: saline with Tween-80).

With `O=P1(c2ccccc2)NC2CC(Cl)CCC2S1` (configuration not stated), the T/C by setting is: (dose: 100.0 mg/kg/injection, schedule: Q04DX002 (ip), vehicle: other) 100 % of control; (dose: 200.0 mg/kg/injection, schedule: Q04DX002 (ip), vehicle: other) 95 % of control. The survivor count (dose: 400.0 mg/kg/injection, schedule: Q04DX002 (ip), vehicle: other) is given as 0 of 3.

As to `CC(=O)NP(=O)(O)N(CCCl)CCCl.NC1CCCCC1`, the T/C reads like this: (dose: 15.63 mg/kg/injection, schedule: Q01DX001 (ip), vehicle: water) 101 % of control [5 of 6 alive]; (dose: 31.25 mg/kg/injection, schedule: Q01DX001 (ip), vehicle: water) 104 % of control; (dose: 62.5 mg/kg/injection, schedule: Q01DX001 (ip), vehicle: water) 108 % of control; (dose: 125.0 mg/kg/injection, schedule: Q01DX001 (ip), vehicle: water) 119 % of control; (dose: 250.0 mg/kg/injection, schedule: Q01DX001 (ip), vehicle: water) 114 % of control; (dose: 500.0 mg/kg/injection, schedule: Q01DX001 (ip), vehicle: water) 119 % of control. The T/C (dose: 1000.0 mg/kg/injection, schedule: Q01DX001 (ip), vehicle: water) was 135 % of control.

`O=C1C(O)=C([N+](=O)[O-])C(=O)C(O)=C1[N+](=O)[O-]`: the T/C by setting is: (dose: 100.0 mg/kg/injection, schedule: Q01DX009 (ip), vehicle: saline) 100 % of control; (dose: 200.0 mg/kg/injection, schedule: Q01DX009 (ip), vehicle: saline) 107 % of control; (dose: 400.0 mg/kg/injection, schedule: Q01DX009 (ip), vehicle: saline) 97 % of control [4 of 6 alive].

As to `CCC(CC)=NOP(N)(=O)N(CCCl)CCCl` (configuration not stated), the T/C is, setting by setting: (dose: 31.25 mg/kg/injection, schedule: Q01DX001 (ip), vehicle: distilled water + Tween-80) 98 % of control; (dose: 62.5 mg/kg/injection, schedule: Q01DX001 (ip), vehicle: distilled water + Tween-80) 101 % of control. Further, the survivor count is recorded as 0 of 6 (dose: 125.0 mg/kg/injection, schedule: Q01DX001 (ip), vehicle: distilled water + Tween-80); 0 of 6 (dose: 250.0 mg/kg/injection, schedule: Q01DX001 (ip), vehicle: distilled water + Tween-80); 0 of 6 (dose: 500.0 mg/kg/injection, schedule: Q01DX001 (ip), vehicle: distilled water + Tween-80).

These data come from PubChem BioAssay AID256 (DTP/NCI, 2004).
